Data published in publication PMC7452315, “Alternative Splicing of a Receptor Intracellular Domain Yields Different Ectodomain Conformations, Enabling Isoform-Selective Functional Ligands” (iScience, 2020).
No constants are given. Whether binding was seen depends on the method and setting. Binding seen in cells or lysates may run through a third protein. Some entries that bind do so weakly or less than the wild type.

Sequences of proteins named here, by UniProt entry; tags and fusion partners are left off. Residues count along the entry.
UniProt Q16288, residues 32-839: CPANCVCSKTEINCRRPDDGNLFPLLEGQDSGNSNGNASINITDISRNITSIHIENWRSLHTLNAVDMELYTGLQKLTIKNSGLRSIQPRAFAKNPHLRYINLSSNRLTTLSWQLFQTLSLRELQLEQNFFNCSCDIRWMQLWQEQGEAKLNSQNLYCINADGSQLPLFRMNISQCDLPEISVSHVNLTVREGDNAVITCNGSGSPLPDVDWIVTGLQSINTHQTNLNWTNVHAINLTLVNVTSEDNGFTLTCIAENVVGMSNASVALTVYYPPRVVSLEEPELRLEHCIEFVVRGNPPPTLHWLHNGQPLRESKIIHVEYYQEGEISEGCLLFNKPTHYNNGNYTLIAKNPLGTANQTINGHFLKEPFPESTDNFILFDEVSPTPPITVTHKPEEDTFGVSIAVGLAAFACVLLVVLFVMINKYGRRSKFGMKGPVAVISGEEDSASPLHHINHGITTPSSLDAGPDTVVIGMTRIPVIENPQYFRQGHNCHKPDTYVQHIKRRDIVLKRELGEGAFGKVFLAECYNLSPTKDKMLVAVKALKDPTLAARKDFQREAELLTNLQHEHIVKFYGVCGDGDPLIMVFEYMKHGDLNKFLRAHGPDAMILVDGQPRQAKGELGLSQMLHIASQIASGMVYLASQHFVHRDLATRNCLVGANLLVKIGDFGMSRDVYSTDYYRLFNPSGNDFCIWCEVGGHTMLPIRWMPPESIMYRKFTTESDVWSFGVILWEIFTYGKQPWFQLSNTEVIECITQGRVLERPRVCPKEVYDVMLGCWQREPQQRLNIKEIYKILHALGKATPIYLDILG
UniProt P07237, residues 18-508: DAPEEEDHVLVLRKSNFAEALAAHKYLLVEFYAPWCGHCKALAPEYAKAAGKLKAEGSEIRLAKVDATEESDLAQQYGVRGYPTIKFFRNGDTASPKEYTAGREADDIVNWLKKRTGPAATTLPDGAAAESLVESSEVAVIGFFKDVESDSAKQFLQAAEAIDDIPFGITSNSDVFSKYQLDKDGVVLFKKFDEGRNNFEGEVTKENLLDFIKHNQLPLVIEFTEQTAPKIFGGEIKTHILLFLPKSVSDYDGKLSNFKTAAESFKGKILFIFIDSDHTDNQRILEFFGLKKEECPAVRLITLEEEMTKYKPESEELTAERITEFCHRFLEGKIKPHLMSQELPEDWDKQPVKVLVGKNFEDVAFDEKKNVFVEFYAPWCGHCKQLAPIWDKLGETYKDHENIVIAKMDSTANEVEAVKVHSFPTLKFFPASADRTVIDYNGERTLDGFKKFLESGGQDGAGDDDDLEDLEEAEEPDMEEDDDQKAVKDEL

Molecular target: full-length TrkC (TrkC-FL) (UniProt Q16288)
Test: co-IP; HEK293 lysates expressing TrkC.T1, TrkC-FL or TrkC-Δ-ICD; immunoprecipitated with a pan-TrkC antibody; reducing and non-reducing SDS-PAGE; blotted with two anti-PDI mAbs or anti-pan-TrkC

With “Protein Disulfide Isomerase (PDI) (from UniProt P07237 18-508) (enzyme)” the binding was “binds”.
